{"sequences": {"note": "Amino acid sequences for entries named in this document (tags omitted).", "UniProt O75400": "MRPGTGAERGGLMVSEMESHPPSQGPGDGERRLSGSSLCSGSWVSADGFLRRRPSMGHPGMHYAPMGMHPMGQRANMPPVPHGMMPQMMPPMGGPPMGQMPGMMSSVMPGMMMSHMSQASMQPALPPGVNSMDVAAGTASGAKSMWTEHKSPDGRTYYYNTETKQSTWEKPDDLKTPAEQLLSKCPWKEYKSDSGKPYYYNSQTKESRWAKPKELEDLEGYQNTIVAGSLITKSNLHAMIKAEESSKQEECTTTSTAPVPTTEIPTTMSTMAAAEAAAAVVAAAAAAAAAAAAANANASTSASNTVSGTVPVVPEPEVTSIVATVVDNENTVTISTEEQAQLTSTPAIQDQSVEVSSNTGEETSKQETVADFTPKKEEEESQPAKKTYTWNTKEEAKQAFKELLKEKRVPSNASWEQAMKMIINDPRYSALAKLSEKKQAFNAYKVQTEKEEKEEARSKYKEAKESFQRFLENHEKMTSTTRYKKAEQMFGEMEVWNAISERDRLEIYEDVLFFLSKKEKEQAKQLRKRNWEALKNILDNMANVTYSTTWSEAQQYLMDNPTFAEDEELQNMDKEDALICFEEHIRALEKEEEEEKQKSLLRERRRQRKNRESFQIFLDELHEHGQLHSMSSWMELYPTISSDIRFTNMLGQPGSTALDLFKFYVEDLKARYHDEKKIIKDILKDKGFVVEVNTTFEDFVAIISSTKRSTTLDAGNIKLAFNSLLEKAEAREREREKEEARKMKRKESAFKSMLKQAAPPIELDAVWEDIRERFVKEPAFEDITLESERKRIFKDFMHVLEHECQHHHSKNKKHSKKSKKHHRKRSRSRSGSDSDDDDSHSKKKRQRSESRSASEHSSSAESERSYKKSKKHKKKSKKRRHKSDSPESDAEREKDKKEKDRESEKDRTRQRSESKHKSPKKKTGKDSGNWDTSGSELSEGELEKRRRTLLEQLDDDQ", "UniProt Q6NZY4": "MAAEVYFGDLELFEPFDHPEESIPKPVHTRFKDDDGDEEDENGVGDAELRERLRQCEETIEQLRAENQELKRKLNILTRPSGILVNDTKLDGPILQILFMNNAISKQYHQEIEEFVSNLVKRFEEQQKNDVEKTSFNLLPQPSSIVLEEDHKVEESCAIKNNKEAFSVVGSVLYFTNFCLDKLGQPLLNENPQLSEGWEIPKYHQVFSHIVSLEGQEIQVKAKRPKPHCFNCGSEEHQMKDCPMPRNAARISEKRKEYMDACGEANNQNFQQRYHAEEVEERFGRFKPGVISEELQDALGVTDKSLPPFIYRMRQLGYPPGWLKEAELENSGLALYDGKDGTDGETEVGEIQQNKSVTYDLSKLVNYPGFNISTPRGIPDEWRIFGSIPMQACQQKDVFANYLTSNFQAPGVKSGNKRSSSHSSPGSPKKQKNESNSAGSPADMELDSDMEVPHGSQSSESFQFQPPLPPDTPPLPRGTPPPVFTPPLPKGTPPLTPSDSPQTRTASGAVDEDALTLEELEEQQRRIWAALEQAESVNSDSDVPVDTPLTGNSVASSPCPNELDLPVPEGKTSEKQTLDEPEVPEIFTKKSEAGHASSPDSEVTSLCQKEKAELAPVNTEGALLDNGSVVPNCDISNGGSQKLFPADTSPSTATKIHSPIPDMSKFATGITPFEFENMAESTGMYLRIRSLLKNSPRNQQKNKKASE", "UniProt P11940": "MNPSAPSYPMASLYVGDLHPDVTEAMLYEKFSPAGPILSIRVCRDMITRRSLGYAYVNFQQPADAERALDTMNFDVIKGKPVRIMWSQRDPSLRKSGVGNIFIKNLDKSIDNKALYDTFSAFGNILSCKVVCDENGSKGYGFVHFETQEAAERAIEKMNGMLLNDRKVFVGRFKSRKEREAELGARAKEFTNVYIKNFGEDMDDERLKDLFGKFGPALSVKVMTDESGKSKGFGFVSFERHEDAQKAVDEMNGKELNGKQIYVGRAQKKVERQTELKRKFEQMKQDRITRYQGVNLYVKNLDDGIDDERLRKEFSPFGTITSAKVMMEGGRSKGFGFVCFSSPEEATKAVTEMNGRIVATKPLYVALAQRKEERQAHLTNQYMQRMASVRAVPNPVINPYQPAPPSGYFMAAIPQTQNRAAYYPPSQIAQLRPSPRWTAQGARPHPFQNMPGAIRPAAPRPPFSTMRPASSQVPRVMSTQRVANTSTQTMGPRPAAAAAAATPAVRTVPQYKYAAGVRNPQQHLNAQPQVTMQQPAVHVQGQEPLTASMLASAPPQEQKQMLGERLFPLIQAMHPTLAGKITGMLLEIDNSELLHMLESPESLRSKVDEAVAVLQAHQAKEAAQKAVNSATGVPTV"}, "source": "paper PMC13476778", "note": "Results are given in words; binding and its absence hold for the method and conditions named. In cells and extracts the contact can be indirect. These calls come from enrichment with a bait or labelling near it, and not all partners need be listed. Sequences can lack the tags named with a protein."}
{"target": "T1, V5-tagged full-length ZC3H18 (Z18^fl) (human) (UniProt Q86VM9)", "T1 sequence": "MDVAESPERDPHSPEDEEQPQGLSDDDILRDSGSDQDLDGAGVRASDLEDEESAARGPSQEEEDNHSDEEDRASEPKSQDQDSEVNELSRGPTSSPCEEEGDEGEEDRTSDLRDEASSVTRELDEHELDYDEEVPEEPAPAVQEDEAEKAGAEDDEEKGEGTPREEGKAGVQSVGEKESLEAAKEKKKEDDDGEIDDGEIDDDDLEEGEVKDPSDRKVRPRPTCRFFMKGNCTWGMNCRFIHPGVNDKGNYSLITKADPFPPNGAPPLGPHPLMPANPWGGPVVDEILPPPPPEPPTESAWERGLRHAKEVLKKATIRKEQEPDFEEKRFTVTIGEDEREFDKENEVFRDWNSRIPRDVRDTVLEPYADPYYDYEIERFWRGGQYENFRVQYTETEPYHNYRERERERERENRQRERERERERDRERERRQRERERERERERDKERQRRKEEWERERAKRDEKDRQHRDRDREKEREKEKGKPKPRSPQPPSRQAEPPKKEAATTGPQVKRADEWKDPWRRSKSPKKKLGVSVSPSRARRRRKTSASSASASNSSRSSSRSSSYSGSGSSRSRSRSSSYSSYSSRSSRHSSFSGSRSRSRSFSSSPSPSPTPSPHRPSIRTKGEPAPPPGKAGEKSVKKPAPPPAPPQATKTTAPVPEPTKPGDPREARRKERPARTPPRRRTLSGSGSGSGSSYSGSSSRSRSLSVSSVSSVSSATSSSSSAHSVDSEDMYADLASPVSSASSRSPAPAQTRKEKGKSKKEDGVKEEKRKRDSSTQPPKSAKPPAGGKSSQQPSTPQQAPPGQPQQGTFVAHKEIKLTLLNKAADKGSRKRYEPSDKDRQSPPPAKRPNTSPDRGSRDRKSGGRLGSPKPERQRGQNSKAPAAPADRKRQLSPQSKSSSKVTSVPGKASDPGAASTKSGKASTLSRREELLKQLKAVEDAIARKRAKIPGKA", "assay": "affinity purification with mass spectrometry; V5-tagged Z18^fl or Z18^trunc transiently expressed in A375 cells; nuclear protein extracted under native conditions; anti-V5 on protein G beads; in triplicate, with or without RNase A/T1 (100 ug/mL); Z18^fl and Z18^trunc compared in the +RNase …"}
{"molecule": "PRPF40A (from UniProt O75400 1-957)", "binding": "binds"}
{"molecule": "PRPF4B (human (endogenous in A375))", "binding": "binds"}
{"molecule": "ZCCHC8 (from UniProt Q6NZY4 1-707)", "binding": "binds"}
{"molecule": "PABPC1 (from UniProt P11940 1-636)", "binding": "binds"}
{"target": "T1, V5-tagged full-length ZC3H18 (Z18^fl) (human)", "assay": "affinity purification with mass spectrometry; V5-tagged Z18^fl or Z18^trunc transiently expressed in A375 cells; nuclear protein extracted under native conditions; anti-V5 on protein G beads; in triplicate, with or without RNase A/T1 (100 ug/mL); Z18^fl and Z18^trunc compared in the +RNase …", "remark": "another data set of the same source"}
{"molecule": "SRRT (protein, UniProt Q9BXP5 1-876) MGDSDDEYDRRRRDKFRRERSDYDRSRERDERRRGDDWNDREWDRGRERRSRGEYRDYDRNRRERFSPPRHELSPPQKRMRRDWDEHSSDPYHSGYEMPYAGGGGGPTYGPPQPWGHPDVHIMQHHVLPIQARLGSIAEIDLGVPPPVMKTFKEFLLSLDDSVDETEAVKRYNDYKLDFRRQQMQDFFLAHKDEEWFRSKYHPDEVGKRRQEARGALQNRLRVFLSLMETGWFDNLLLDIDKADAIVKMLDAAVIKMEGGTENDLRILEQEEEEEQAGKPGEPSKKEEGRAGAGLGDGERKTNDKDEKKEDGKQAENDSSNDDKTKKSEGDGDKEEKKEDSEKEAKKSSKKRNRKHSGDDSFDEGSVSESESESESGQAEEEKEEAEEALKEKEKPKEEEWEKPKDAAGLECKPRPLHKTCSLFMRNIAPNISRAEIISLCKRYPGFMRVALSEPQPERRFFRRGWVTFDRSVNIKEICWNLQNIRLRECELSPGVNRDLTRRVRNINGITQHKQIVRNDIKLAAKLIHTLDDRTQLWASEPGTPPLPTSLPSQNPILKNITDYLIEEVSAEEEELLGSSGGAPPEEPPKEGNPAEINVERDEKLIKVLDKLLLYLRIVHSLDYYNTCEYPNEDEMPNRCGIIHVRGPMPPNRISHGEVLEWQKTFEEKLTPLLSVRESLSEEEAQKMGRKDPEQEVEKFVTSNTQELGKDKWLCPLSGKKFKGPEFVRKHIFNKHAEKIEEVKKEVAFFNNFLTDAKRPALPEIKPAQPPGPAQILPPGLTPGLPYPHQTPQGLMPYGQPRPPILGYGAGAVRPAVPTGGPPYPHAPYGAGRGNYDAFRGQGGYPGKPRNRMVRGDPRAIVEYRDLDAPDDVDFF", "binding": "binds"}
{"molecule": "FNBP4 (protein, UniProt Q8N3X1 1-1017) MGKKSRAVPGRRPILQLSPPGPRGSTPGRDPEPEPDTEPDSTAAVPSQPAPSAATTTTTAVTAAAASDDSPSEDEQEAVQEVPRVVQNPPKPVMTTRPTAVKATGGLCLLGAYADSDDDDNDVSEKLAQSKETNGNQSTDIDSTLANFLAEIDAITAPQPAAPVGASAPPPTPPRPEPKEAATSTLSSSTSNGTDSTQTSGWQYDTQCSLAGVGIEMGDWQEVWDENTGCYYYWNTQTNEVTWELPQYLATQVQGLQHYQPSSVPGAETSFVVNTDIYSKEKTISVSSSKSGPVIAKREVKKEVNEGIQALSNSEEEKKGVAASLLAPLLPEGIKEEEERWRRKVICKEEPVSEVKETSTTVEEATTIVKPQEIMLDNIEDPSQEDLCSVVQSGESEEEEEQDTLELELVLERKKAELRALEEGDGSVSGSSPRSDISQPASQDGMRRLMSKRGKWKMFVRATSPESTSRSSSKTGRDTPENGETAIGAENSEKIDENSDKEMEVEESPEKIKVQTTPKVEEEQDLKFQIGELANTLTSKFEFLGINRQSISNFHVLLLQTETRIADWREGALNGNYLKRKLQDAAEQLKQYEINATPKGWSCHWDRDHRRYFYVNEQSGESQWEFPDGEEEEEESQAQENRDETLAKQTLKDKTGTDSNSTESSETSTGSLCKESFSGQVSSSSLMPLTPFWTLLQSNVPVLQPPLPLEMPPPPPPPPESPPPPPPPPPPAEDGEIQEVEMEDEGSEEPPAPGTEEDTPLKPSAQTTVVTSQSSVDSTISSSSSTKGIKRKATEISTAVVQRSATIGSSPVLYSQSAIATGHQAAGIGNQATGIGHQTIPVSLPAAGMGHQARGMSLQSNYLGLAAAPAIMSYAECSVPIGVTAPSLQPVQARGAVPTATIIEPPPPPPPPPPPPPPAPKMPPPEKTKKGRKDKAKKSKTKMPSLVKKWQSIQRELDEEDNSSSSEEDRESTAQKRIEEWKQQQLVSGMAERNANFEALPEDWRARLKRRKMAPNT", "binding": "binds"}
